PubChem BioAssay AID1508597, Cure First | 2020
Shown is a random part of the about 2,100 reagents, under one of the conditions tested. 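Calls flag viability under 80% in either arm, not effects specific to rucaparib; the reference for percent is not stated.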 A number with no mark means an inactive call. The numbers tell different reagents against one gene apart. A reagent listed more than once was tested more than once; the source does not tell the runs apart. Not given: the 100% reference.

Purpose: 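Knock-downs altering ovarian cancer cell survival with or without PARP inhibitor rucaparib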 (primary screen)
Cells: human ovarian carcinoma lines grown from tumours: OCI-P5x (papillary serous) and OCI-C5x (clear cell)
Reagent: siRNA pool against human genes, 1.25 pmol siRNA per well
Time to read-out: 72 h or 96 h, depending on the cell culture
Challenge: rucaparib 20 µM (about IC30) or vehicle, present until read-out
Rucaparib or vehicle: Vehicle
Cell line: OCI-C5x (clear cell)
Read-out: 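Luminescent ATP-based viability assay read 72 or 96 h after transfection, depending on culture, given as normalised percent viability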
Scale: viability, normalised: higher = more viable cells remaining
Active means: 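Active when normalised viability falls below 80 percent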
Calls: active = viability under 80%; inactive = viability 80% or more

For CAMK2G, technical replicate 1, the values are viability, normalised (%) = 39.4 (active).
With CAMK2G, technical replicate 1, the values are viability, normalised (%) = 79.3 (active).
CAMK2G, technical replicate 2 showed viability, normalised (%) = 80.9.
CAMK2G, technical replicate 2 scored viability, normalised (%) = 66.9 (active).
With CAMK2G, technical replicate 3 the deposit lists viability, normalised (%) = 54.3 (active).
CAMK2G, technical replicate 3 gave viability, normalised (%) = 55.4 (active).
With PKM, technical replicate 1 the deposit lists viability, normalised (%) = 69.7 (active).
PKM, technical replicate 2 gave viability, normalised (%) = 72.3 (active).
With PKM, technical replicate 3, the values are viability, normalised (%) = 56.5 (active).
For TLR7, technical replicate 1 the deposit lists viability, normalised (%) = 60.4 (active).
TLR7, technical replicate 2 gave viability, normalised (%) = 54.9 (active).
TLR7, technical replicate 3 gave viability, normalised (%) = 57.3 (active).
FBXO5, technical replicate 1 scored viability, normalised (%) = 82.9.
FBXO5, technical replicate 2 showed viability, normalised (%) = 62.9 (active).
For FBXO5, technical replicate 3, the values are viability, normalised (%) = 73.1 (active).

No new results follow: 2 of the entries above.
CAMK2G, technical replicate 2 | viability, normalised (%): 66.9 (active)
CAMK2G, technical replicate 3 | viability, normalised (%): 54.3 (active)

The listing continues:
With FMN2, technical replicate 1, the values are viability, normalised (%) = 38.7 (active).
With FMN2, technical replicate 2, the values are viability, normalised (%) = 57.6 (active).
FMN2, technical replicate 3 scored viability, normalised (%) = 39.9 (active).
With HELQ #1, technical replicate 1, the entry reads viability, normalised (%) = 60.9 (active).
HELQ #1, technical replicate 2 gave viability, normalised (%) = 60.7 (active).
For HELQ #1, technical replicate 3, the values are viability, normalised (%) = 68.1 (active).
With HELQ #2, technical replicate 1, the values are viability, normalised (%) = 41.3 (active).
HELQ #2, technical replicate 2 showed viability, normalised (%) = 48.1 (active).
HELQ #2, technical replicate 3 gave viability, normalised (%) = 61 (active).
